No constants are given. Whether binding was seen depends on the method and setting. Some results given as binding are weak or reduced against the parent protein; the word gives no strength. Sequences can lack the tags named with a protein.
T1: GST-Phg2 (amino acids 207-1159 of Phg2) (D. discoideum) (UniProt Q54QQ1)
T1 sequence: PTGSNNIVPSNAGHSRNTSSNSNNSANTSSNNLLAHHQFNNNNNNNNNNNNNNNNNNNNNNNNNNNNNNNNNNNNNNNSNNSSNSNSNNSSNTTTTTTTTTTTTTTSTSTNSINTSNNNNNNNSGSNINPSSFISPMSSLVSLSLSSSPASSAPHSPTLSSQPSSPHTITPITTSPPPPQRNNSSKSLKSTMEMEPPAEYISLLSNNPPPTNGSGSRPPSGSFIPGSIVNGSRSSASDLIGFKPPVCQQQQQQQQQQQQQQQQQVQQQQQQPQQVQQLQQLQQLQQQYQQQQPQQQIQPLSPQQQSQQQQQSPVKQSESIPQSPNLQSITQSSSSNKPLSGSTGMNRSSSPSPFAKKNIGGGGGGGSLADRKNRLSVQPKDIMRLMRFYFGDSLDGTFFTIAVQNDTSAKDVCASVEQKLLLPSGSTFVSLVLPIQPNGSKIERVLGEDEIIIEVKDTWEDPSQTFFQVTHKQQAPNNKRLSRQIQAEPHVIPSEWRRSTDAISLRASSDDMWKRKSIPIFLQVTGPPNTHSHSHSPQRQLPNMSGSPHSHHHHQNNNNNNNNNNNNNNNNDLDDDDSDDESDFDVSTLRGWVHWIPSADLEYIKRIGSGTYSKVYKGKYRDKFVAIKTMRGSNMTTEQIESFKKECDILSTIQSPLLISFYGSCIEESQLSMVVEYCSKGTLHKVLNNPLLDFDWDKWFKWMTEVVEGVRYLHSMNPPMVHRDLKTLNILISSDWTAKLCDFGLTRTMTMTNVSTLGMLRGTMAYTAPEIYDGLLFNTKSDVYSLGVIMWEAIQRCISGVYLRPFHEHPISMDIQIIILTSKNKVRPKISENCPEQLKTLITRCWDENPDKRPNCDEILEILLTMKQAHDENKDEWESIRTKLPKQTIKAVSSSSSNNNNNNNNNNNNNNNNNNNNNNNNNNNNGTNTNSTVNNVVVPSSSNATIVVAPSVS

T2: Myc-PTP3 (protein tyrosine phosphatase 3) (D. discoideum) (UniProt P54637)
T2 sequence: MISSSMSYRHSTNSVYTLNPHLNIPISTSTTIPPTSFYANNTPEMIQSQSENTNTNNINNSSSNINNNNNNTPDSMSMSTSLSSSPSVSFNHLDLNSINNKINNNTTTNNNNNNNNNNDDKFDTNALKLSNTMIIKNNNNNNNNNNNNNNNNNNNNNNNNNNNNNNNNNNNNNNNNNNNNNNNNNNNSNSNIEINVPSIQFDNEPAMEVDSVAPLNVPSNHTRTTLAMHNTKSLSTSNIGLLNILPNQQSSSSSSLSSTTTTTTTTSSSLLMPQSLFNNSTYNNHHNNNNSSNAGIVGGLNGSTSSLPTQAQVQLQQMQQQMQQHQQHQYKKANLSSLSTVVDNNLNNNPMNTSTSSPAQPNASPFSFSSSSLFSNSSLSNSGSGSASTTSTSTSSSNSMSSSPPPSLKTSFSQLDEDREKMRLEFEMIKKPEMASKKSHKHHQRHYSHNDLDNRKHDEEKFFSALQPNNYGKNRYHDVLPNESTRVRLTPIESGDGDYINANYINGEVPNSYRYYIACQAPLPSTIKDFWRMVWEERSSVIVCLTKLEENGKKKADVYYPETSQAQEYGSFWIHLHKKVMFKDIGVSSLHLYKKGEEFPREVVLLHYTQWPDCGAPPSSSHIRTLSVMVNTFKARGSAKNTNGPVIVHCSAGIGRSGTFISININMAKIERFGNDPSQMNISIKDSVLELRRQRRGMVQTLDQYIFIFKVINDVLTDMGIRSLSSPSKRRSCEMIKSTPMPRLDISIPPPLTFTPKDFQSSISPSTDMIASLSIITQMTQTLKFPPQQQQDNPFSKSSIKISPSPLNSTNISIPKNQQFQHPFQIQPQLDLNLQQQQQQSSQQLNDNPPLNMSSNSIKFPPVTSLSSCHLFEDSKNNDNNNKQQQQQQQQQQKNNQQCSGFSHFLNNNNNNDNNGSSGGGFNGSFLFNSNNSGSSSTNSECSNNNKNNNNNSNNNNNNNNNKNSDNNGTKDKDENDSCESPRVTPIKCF


Tests used:
[1] = molecular target: T1, GST-Phg2 (amino acids 207-1159 of Phg2) (D. discoideum); assay: pull-down; GST-Phg2 or GST on glutathione agarose beads; Myc-PTP3 immunopurified from phg2- cells and eluted by a pH shift (50 mM glycine, pH 2.8); pull-down buffer 20 mM Hepes/NaOH pH 7.4, 10 mM MgCl2, 0.02% NP-40, 30 mM NaCl, 1 mM DTT, 0.2 mM ATP; Western blot; both purified
[2] = molecular target: T2, Myc-PTP3 (protein tyrosine phosphatase 3) (D. discoideum); assay: pull-down; reverse approach: Myc-PTP3 held on anti-Myc (9E10) Dynabeads Protein G; 5-10 ug GST-Phg2 or GST eluted from glutathione beads added in pull-down buffer (20 mM Hepes/NaOH pH 7.4, 10 mM MgCl2, 0.02% NP-40, 30 mM NaCl, 1 mM DTT, 0.2 mM ATP), 2 h at 4°C; Western blot; both purified

binding [1]	binding [2]	Binder
binds	–	Myc-PTP3 (protein tyrosine phosphatase 3) (enzyme, UniProt P54637 1-990) MISSSMSYRHSTNSVYTLNPHLNIPISTSTTIPPTSFYANNTPEMIQSQSENTNTNNINNSSSNINNNNNNTPDSMSMSTSLSSSPSVSFNHLDLNSINNKINNNTTTNNNNNNNNNNDDKFDTNALKLSNTMIIKNNNNNNNNNNNNNNNNNNNNNNNNNNNNNNNNNNNNNNNNNNNNNNNNNNNSNSNIEINVPSIQFDNEPAMEVDSVAPLNVPSNHTRTTLAMHNTKSLSTSNIGLLNILPNQQSSSSSSLSSTTTTTTTTSSSLLMPQSLFNNSTYNNHHNNNNSSNAGIVGGLNGSTSSLPTQAQVQLQQMQQQMQQHQQHQYKKANLSSLSTVVDNNLNNNPMNTSTSSPAQPNASPFSFSSSSLFSNSSLSNSGSGSASTTSTSTSSSNSMSSSPPPSLKTSFSQLDEDREKMRLEFEMIKKPEMASKKSHKHHQRHYSHNDLDNRKHDEEKFFSALQPNNYGKNRYHDVLPNESTRVRLTPIESGDGDYINANYINGEVPNSYRYYIACQAPLPSTIKDFWRMVWEERSSVIVCLTKLEENGKKKADVYYPETSQAQEYGSFWIHLHKKVMFKDIGVSSLHLYKKGEEFPREVVLLHYTQWPDCGAPPSSSHIRTLSVMVNTFKARGSAKNTNGPVIVHCSAGIGRSGTFISININMAKIERFGNDPSQMNISIKDSVLELRRQRRGMVQTLDQYIFIFKVINDVLTDMGIRSLSSPSKRRSCEMIKSTPMPRLDISIPPPLTFTPKDFQSSISPSTDMIASLSIITQMTQTLKFPPQQQQDNPFSKSSIKISPSPLNSTNISIPKNQQFQHPFQIQPQLDLNLQQQQQQSSQQLNDNPPLNMSSNSIKFPPVTSLSSCHLFEDSKNNDNNNKQQQQQQQQQQKNNQQCSGFSHFLNNNNNNDNNGSSGGGFNGSFLFNSNNSGSSSTNSECSNNNKNNNNNSNNNNNNNNNKNSDNNGTKDKDENDSCESPRVTPIKCF
–	binds	GST-Phg2 (amino acids 207-1159 of Phg2) (domain or fragment, UniProt Q54QQ1 207-1159) PTGSNNIVPSNAGHSRNTSSNSNNSANTSSNNLLAHHQFNNNNNNNNNNNNNNNNNNNNNNNNNNNNNNNNNNNNNNNSNNSSNSNSNNSSNTTTTTTTTTTTTTTSTSTNSINTSNNNNNNNSGSNINPSSFISPMSSLVSLSLSSSPASSAPHSPTLSSQPSSPHTITPITTSPPPPQRNNSSKSLKSTMEMEPPAEYISLLSNNPPPTNGSGSRPPSGSFIPGSIVNGSRSSASDLIGFKPPVCQQQQQQQQQQQQQQQQQVQQQQQQPQQVQQLQQLQQLQQQYQQQQPQQQIQPLSPQQQSQQQQQSPVKQSESIPQSPNLQSITQSSSSNKPLSGSTGMNRSSSPSPFAKKNIGGGGGGGSLADRKNRLSVQPKDIMRLMRFYFGDSLDGTFFTIAVQNDTSAKDVCASVEQKLLLPSGSTFVSLVLPIQPNGSKIERVLGEDEIIIEVKDTWEDPSQTFFQVTHKQQAPNNKRLSRQIQAEPHVIPSEWRRSTDAISLRASSDDMWKRKSIPIFLQVTGPPNTHSHSHSPQRQLPNMSGSPHSHHHHQNNNNNNNNNNNNNNNNDLDDDDSDDESDFDVSTLRGWVHWIPSADLEYIKRIGSGTYSKVYKGKYRDKFVAIKTMRGSNMTTEQIESFKKECDILSTIQSPLLISFYGSCIEESQLSMVVEYCSKGTLHKVLNNPLLDFDWDKWFKWMTEVVEGVRYLHSMNPPMVHRDLKTLNILISSDWTAKLCDFGLTRTMTMTNVSTLGMLRGTMAYTAPEIYDGLLFNTKSDVYSLGVIMWEAIQRCISGVYLRPFHEHPISMDIQIIILTSKNKVRPKISENCPEQLKTLITRCWDENPDKRPNCDEILEILLTMKQAHDENKDEWESIRTKLPKQTIKAVSSSSSNNNNNNNNNNNNNNNNNNNNNNNNNNNNGTNTNSTVNNVVVPSSSNATIVVAPSVS

— paper PMC3934975
